Experimental data from article PMC5466602.
These are yes or no findings as the source states them, for the method shown. In cells and extracts the contact can be indirect. Some results given as binding are weak or reduced against the parent protein; the word gives no strength.

Legend:
[1] = molecular target: T1, Utp12p, full-length (co-expressed in E. coli) (S. cerevisiae) (UniProt Q12220); test: pull-down; co-expression of four proteins in E. coli from three plasmids (bi-cistronic UTP12-UTP13 in modified pET-28b, PWP2 and UTP21 constructs in modified pET-15b and pCDF); cobalt-affinity pull-down, SDS-PAGE, Coomassie; bands confirmed by mass spectrometry
T1 sequence: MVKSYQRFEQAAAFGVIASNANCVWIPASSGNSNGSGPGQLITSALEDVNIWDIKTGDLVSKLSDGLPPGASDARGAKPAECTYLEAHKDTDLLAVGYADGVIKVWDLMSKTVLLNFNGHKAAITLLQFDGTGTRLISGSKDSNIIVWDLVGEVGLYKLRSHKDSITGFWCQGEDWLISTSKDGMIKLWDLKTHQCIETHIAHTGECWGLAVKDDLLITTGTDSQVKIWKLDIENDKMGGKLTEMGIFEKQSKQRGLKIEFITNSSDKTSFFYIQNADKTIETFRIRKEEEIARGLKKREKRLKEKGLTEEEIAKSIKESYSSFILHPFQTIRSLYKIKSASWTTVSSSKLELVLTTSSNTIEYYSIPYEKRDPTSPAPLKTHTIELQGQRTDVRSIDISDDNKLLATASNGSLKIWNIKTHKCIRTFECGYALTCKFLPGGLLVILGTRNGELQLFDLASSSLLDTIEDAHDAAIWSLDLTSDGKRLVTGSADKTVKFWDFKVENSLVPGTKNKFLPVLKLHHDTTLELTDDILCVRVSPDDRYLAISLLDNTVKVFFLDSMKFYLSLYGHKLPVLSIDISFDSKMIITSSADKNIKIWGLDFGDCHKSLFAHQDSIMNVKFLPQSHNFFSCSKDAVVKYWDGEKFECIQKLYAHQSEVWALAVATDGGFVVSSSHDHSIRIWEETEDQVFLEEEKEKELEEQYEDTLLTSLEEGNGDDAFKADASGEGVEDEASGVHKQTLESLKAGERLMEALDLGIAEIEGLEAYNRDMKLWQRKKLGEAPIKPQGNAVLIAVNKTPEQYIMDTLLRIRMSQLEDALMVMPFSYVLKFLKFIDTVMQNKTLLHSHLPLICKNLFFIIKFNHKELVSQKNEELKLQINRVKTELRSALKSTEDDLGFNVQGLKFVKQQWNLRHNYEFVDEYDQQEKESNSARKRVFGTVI

[2] = molecular target: T1, Utp12p, full-length (co-expressed in E. coli) (S. cerevisiae); test: pull-down; pairwise co-expression in E. coli Rosetta2, N-terminal His tag on one partner; cleared lysate on cobalt-affinity resin 30 min at 4 °C in 1.5x PBS, 1 mM magnesium acetate, 0.1% NP-40, 20 mM imidazole, 10% glycerol; SDS-PAGE, Coomassie

binding [1]: binds
binding [2]: binds
B1: Utp13p, full-length (co-expressed in E. coli) (protein, UniProt Q05946 1-817)
chain: MDLKTSYKGISLNPIYAGSSAVATVSENGKILATPVLDEINIIDLTPGSRKILHKISNEDEQEITALKLTPDGQYLTYVSQAQLLKIFHLKTGKVVRSMKISSPSYILDADSTSTLLAVGGTDGSIIVVDIENGYITHSFKGHGGTISSLKFYGQLNSKIWLLASGDTNGMVKVWDLVKRKCLHTLQEHTSAVRGLDIIEVPDNDEPSLNLLSGGRDDIINLWDFNMKKKCKLLKTLPVNQQVESCGFLKDGDGKRIIYTAGGDAIFQLIDSESGSVLKRTNKPIEELFIIGVLPILSNSQMFLVLSDQTLQLINVEEDLKNDEDTIQVTSSIAGNHGIIADMRYVGPELNKLALATNSPSLRIIPVPDLSGPEASLPLDVEIYEGHEDLLNSLDATEDGLWIATASKDNTAIVWRYNENSCKFDIYAKYIGHSAAVTAVGLPNIVSKGYPEFLLTASNDLTIKKWIIPKPTASMDVQIIKVSEYTRHAHEKDINALSVSPNDSIFATASYDKTCKIWNLENGELEATLANHKRGLWDVSFCQYDKLLATSSGDKTVKIWSLDTFSVMKTLEGHTNAVQRCSFINKQKQLISCGADGLIKIWDCSSGECLKTLDGHNNRLWALSTMNDGDMIVSADADGVFQFWKDCTEQEIEEEQEKAKLQVEQEQSLQNYMSKGDWTNAFLLAMTLDHPMRLFNVLKRALGESRSRQDTEEGKIEVIFNEELDQAISILNDEQLILLMKRCRDWNTNAKTHTIAQRTIRCILMHHNIAKLSEIPGMVKIVDAIIPYTQRHFTRVDNLVEQSYILDYALVEMDKLF
